# Some of the results follow.
# Amino acid sequences for entries named in this document (tags omitted). A change or cut given only in a name is not applied to a line headed by its entry.
# UniProt P08574: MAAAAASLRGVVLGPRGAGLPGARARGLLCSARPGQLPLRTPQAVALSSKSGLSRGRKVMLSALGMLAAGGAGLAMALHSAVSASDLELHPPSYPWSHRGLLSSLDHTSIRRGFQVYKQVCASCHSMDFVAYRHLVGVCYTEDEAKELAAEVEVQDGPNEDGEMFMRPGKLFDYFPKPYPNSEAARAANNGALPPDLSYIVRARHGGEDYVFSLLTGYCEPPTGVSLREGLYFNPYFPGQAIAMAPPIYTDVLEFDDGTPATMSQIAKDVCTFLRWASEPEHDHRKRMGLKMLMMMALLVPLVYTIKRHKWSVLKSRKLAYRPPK
# UniProt Q13561, whole entry: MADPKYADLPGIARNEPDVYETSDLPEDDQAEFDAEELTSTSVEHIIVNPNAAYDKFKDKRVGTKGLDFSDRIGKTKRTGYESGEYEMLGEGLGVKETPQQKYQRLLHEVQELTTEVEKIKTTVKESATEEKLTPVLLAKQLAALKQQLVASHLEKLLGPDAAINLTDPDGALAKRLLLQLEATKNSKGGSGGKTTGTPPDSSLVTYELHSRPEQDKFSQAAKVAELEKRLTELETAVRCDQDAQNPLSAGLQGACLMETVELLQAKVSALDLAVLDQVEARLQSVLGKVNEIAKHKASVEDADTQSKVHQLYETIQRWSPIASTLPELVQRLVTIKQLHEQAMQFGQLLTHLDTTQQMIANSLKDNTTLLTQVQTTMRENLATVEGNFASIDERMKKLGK
# UniProt Q6UXH1: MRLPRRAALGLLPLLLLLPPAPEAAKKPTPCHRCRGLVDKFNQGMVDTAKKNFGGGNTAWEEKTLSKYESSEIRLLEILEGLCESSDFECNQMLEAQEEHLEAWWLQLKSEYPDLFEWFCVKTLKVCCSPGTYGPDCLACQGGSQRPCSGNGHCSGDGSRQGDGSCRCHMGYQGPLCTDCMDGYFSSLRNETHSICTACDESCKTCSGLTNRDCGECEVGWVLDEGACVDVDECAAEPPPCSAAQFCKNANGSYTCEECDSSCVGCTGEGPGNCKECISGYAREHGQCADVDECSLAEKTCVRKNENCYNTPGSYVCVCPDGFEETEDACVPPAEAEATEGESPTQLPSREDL
# UniProt O95825: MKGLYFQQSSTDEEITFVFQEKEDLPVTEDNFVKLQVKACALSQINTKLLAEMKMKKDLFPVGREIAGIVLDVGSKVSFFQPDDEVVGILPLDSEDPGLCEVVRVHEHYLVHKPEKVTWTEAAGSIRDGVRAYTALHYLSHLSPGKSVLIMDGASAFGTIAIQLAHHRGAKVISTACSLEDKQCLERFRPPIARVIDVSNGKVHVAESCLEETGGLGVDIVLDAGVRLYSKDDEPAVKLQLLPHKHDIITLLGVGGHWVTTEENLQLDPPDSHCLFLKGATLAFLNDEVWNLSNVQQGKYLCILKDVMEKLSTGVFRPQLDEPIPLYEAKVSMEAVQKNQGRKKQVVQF
# UniProt Q96HY6: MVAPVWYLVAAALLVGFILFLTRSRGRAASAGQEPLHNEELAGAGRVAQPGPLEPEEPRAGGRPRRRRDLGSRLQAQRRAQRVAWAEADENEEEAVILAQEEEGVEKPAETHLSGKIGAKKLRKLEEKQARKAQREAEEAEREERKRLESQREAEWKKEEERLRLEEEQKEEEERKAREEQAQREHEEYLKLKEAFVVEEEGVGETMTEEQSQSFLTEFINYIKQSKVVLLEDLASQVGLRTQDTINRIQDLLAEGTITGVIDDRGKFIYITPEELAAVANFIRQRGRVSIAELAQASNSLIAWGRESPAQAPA
# UniProt Q9Y2S2: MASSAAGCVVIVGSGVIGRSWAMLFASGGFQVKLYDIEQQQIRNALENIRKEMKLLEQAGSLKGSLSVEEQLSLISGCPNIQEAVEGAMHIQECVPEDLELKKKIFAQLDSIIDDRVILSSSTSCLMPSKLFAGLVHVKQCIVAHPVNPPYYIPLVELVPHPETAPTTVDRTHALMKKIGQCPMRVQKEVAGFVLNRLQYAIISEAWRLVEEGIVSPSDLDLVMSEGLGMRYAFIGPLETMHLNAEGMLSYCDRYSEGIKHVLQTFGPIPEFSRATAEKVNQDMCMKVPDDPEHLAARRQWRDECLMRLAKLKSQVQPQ
# UniProt P16220: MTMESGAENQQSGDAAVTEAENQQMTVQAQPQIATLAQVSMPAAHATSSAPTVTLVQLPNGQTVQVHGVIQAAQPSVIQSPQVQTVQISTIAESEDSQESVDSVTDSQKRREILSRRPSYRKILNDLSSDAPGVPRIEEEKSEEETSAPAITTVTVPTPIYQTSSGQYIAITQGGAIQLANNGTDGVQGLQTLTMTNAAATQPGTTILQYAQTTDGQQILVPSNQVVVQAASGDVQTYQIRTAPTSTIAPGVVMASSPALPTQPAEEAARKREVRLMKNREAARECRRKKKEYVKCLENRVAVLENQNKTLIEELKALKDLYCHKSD
# UniProt Q13619, whole entry: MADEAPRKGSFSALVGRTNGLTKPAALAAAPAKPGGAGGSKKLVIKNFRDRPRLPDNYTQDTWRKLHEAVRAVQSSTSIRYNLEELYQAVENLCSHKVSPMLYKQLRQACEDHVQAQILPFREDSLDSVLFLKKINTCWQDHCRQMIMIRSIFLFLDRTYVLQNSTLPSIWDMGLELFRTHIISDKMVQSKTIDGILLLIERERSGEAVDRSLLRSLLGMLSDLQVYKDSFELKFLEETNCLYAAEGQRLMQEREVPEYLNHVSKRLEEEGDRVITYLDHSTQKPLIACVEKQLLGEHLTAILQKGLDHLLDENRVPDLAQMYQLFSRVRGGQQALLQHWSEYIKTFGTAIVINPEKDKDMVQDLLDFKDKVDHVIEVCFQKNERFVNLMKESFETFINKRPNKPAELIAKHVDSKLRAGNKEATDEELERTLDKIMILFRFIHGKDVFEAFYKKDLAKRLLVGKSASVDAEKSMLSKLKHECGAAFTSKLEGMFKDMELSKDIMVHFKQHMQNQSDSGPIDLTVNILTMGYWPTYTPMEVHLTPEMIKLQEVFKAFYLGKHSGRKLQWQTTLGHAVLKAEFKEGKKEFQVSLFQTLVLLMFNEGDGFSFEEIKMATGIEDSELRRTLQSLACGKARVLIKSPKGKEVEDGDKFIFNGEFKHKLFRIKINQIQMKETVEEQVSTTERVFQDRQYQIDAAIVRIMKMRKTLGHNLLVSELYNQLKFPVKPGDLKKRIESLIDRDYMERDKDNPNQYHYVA
# UniProt Q8IX18: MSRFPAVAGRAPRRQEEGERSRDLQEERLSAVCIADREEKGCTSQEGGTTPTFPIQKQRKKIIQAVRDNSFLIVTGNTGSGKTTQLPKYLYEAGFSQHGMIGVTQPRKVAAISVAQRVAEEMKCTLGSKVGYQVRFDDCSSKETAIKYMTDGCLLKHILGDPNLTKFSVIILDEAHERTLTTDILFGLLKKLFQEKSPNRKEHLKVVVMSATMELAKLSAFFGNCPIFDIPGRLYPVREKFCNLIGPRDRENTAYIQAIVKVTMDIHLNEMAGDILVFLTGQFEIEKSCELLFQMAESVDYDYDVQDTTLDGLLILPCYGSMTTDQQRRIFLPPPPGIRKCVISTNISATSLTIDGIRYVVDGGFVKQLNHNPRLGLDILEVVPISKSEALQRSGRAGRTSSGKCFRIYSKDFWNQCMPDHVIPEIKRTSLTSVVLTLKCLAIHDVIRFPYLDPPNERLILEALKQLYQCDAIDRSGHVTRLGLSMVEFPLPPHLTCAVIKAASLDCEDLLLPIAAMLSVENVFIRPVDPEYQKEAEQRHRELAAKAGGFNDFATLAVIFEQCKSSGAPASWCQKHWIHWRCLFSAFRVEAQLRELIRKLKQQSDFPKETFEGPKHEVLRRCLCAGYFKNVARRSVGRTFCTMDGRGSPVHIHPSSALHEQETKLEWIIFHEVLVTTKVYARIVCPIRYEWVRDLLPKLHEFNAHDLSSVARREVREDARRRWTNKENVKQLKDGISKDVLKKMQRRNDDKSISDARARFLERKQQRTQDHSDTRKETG
# UniProt Q9NTM9: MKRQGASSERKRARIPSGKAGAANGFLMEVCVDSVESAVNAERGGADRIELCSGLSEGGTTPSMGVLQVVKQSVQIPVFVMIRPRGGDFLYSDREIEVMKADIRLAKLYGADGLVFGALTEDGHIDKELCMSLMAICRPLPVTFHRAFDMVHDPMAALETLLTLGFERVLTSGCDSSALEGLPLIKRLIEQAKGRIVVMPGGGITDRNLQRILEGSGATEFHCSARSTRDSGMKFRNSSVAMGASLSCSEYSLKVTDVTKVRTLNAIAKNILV
# UniProt P0CG13, whole entry: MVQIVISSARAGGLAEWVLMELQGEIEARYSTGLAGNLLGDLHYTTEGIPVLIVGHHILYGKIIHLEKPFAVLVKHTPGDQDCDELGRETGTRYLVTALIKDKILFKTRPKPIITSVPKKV
# UniProt Q6UW02: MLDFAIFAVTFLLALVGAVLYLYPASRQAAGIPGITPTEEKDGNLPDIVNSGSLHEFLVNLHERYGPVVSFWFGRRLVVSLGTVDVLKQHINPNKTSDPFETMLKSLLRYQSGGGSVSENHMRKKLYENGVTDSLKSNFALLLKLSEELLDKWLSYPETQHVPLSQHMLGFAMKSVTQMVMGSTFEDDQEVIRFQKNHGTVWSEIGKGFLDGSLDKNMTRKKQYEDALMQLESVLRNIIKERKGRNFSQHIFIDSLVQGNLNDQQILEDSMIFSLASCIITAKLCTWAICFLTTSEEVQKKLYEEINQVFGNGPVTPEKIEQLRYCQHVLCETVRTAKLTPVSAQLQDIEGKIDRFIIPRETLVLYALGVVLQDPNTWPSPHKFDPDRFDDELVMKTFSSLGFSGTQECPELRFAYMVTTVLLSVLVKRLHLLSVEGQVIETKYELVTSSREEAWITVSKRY
# UniProt O95865: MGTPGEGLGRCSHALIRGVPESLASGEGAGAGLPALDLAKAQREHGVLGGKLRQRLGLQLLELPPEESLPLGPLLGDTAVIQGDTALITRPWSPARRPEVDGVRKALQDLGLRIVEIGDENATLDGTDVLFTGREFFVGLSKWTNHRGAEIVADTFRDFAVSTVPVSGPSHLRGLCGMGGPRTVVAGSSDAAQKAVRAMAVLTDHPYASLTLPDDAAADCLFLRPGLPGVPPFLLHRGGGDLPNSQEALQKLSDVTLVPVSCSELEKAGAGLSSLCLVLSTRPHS
# UniProt Q96F07, whole entry: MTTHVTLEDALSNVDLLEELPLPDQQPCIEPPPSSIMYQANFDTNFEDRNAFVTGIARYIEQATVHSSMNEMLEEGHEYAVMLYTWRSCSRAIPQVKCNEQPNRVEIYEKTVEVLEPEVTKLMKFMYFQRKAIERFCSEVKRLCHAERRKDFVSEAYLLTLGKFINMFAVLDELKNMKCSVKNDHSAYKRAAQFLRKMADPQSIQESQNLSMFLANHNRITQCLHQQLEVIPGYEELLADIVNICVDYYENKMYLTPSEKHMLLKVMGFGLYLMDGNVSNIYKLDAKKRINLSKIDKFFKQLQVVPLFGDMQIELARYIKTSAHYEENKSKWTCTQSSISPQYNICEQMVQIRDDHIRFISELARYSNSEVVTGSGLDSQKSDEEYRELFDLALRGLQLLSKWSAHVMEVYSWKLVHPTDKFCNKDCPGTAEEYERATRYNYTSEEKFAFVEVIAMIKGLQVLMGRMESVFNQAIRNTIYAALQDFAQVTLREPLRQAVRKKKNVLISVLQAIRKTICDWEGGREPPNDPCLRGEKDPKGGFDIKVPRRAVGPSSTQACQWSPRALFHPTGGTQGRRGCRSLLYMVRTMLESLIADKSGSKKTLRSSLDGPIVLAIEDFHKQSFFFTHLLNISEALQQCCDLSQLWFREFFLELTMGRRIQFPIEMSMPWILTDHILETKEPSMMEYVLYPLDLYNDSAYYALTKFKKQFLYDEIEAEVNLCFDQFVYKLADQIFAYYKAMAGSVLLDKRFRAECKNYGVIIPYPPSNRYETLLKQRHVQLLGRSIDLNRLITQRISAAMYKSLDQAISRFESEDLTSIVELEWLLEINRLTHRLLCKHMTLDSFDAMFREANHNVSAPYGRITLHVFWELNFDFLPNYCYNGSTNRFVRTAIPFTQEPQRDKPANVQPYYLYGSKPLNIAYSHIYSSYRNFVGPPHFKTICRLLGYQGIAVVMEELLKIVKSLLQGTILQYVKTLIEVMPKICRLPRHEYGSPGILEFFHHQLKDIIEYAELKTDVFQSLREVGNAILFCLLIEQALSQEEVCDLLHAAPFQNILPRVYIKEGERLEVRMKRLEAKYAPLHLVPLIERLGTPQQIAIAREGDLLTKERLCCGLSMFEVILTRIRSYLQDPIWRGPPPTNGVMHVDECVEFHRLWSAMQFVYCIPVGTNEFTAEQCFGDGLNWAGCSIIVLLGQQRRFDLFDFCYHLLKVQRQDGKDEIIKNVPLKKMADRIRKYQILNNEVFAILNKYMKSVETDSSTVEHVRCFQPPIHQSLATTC
# Compound: COc1ccc(Cn2ccc3ccc(C(=O)NO)cc32)cc1
# Assay: dose-dependent thermal stabilisation call (2D-TPP, DLPTP, 10% FDR) (binary (1 = stabilised)); higher = stabilised by the compound
# Details: system: HL-60 intact cells; concentration range 0.04-10 µM
row,Target,dose-dependent thermal stabilisation call
1,CYC1 (UniProt P08574),inactive: 0
2,DCTN2 (UniProt Q13561),inactive: 0
3,COX4I1 (UniProt P13073),inactive: 0
4,DDX56 (UniProt Q9NY93),inactive: 0
5,CUL2 (UniProt Q13617),inactive: 0
6,CRELD2 (UniProt Q6UXH1),inactive: 0
7,CWF19L1 (UniProt Q69YN2),inactive: 0
8,COX15 (UniProt Q7KZN9),inactive: 0
9,CYB5R3 (UniProt P00387),active: 1
10,CXORF56 (UniProt Q9H5V9),inactive: 0
11,CRYZL1 (UniProt O95825),inactive: 0
12,COPA (UniProt P53621),inactive: 0
13,DAXX (UniProt Q9UER7),inactive: 0
14,DDX6 (UniProt P26196),inactive: 0
15,DDRGK1 (UniProt Q96HY6),inactive: 0
16,CRYL1 (UniProt Q9Y2S2),inactive: 0
17,CREB1 (UniProt P16220),inactive: 0
18,DDX19A (UniProt Q9NUU7),inactive: 0
19,DCTN3 (UniProt O75935),active: 1

# An excerpt from further up:
row,Target,dose-dependent thermal stabilisation call
18,DDX19A (UniProt Q9NUU7),inactive: 0
19,DCTN3 (UniProt O75935),active: 1

# More results follow:

row,Target,dose-dependent thermal stabilisation call
1,DDB1 (UniProt Q16531),inactive: 0
2,CUL4A (UniProt Q13619),inactive: 0
3,DHX40 (UniProt Q8IX18),inactive: 0
4,CPSF6 (UniProt Q16630),inactive: 0
5,DENND2C (UniProt Q68D51),inactive: 0
6,CUTC (UniProt Q9NTM9),inactive: 0
7,CTNNAL1 (UniProt Q9UBT7),inactive: 0
8,CTF8 (UniProt P0CG13),inactive: 0
9,CTR9 (UniProt Q6PD62),inactive: 0
10,DHDDS (UniProt Q86SQ9),inactive: 0
11,DHCR24 (UniProt Q15392),inactive: 0
12,DDA1 (UniProt Q9BW61),inactive: 0
13,DGKH (UniProt Q86XP1),inactive: 0
14,CORO1B (UniProt Q9BR76),inactive: 0
15,CYP20A1 (UniProt Q6UW02),inactive: 0
16,DDX50 (UniProt Q9BQ39),inactive: 0
17,DHX8 (UniProt Q14562),inactive: 0
18,DDAH2 (UniProt O95865),inactive: 0
19,CYFIP2 (UniProt Q96F07),inactive: 0

# Source: the supplement of paper PMC7666118
